For at least one entry, the source does not settle the construct or the ends of the probe. For part of these data: Negatives hold for the conditions tested. Tags and fusion partners may be left off the protein sequences shown.

One series has as its target T1, FurC (PerR) (Anabaena sp. PCC 7120) (UniProt A0ACD7RPQ8).
T1 sequence (looked up, limits assumed): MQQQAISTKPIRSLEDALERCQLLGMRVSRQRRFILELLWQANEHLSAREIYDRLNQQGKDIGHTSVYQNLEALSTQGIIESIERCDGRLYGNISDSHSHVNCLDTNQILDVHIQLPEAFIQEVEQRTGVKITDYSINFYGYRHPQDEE
As to the kind of experiment: EMSA. The note with it: 100 uM MnCl2; EMSA: 10 mM Bis-Tris-HCl pH 7.5, 40 mM KCl, 0.1 mg/mL BSA, 1 mM DTT, 5% glycerol (+100 uM MnCl2 for FurA/FurC; 5 ug ZnSO4 for FurB), 50-100 ng DNA in 20 uL; recombinant protein; protein details: His-tag (pET-28a); probe letters rebuilt from the primers and the genome.
Regarding “TTTTGAACAATTTGGTAGCGTGCTTGCAGTACTTTACCGATCATGTGGTGGTTCATGAGCTGGTTACTGAGTTAGTCCTTATATAAGTATTCTCTTGATTGCGTGCTGTTTCCGGAAAGACAAATTACTCTAAGCTCGACTTTATCCAAAATTAAGAACTTGGTTTTCTTTATCTGGTAAAATACCTAGCTTTTTGGCAAATACTTTTTTCACATTTATAGGTTCCCGATGCAGTTGAAAAAGTAAGACTATTGTCTTACAAAGATTTTAGCGATCGCGATCTCATTGCAAAAAAAATGAATTAAAGTCAAGTTTAAGCCCTGCTGGCTGTCTTTATCATAGGCGCTACAGTCGTGGATCTACGGGTTCACT (double strand) [pknE (alr3732) promoter]”, the binding result was “binds”.

On to “GAAACCCGTCCAACGCAGTGGCTCCCCTACGTGTATTTCAAAAATCAAGTATGAGTCCTATAGTTTTTTTAAACGTTTTTACTAGCACACTCATGTGGTTTCAAAATTACCTTGTTTGCAGTTTTTATGATTTATTTTTTCCCGAAACATAAACATAAACTATCTATTTTTGATATTATTATATAAATTAAATTTTCAATAATTTAATTTGTCAATTAAAGATTTTTGATTATAGATTACAAATCTAAACAAAGCACTTCATGTATATAAATTAATTTCGACTTAAATTATTTATAAATAAGATTTAATATTAAACCAATAAGCTACTTCATGGTGAAAGAAAAAGCATAATTCCTAAATTAACACTATATGCAGC (double strand) [all1651 promoter]”, for which the binding result is “binds”.

For a further series, the system named is T2, FurA (Fur) (Anabaena sp. PCC 7120).
T2 sequence (looked up, limits assumed): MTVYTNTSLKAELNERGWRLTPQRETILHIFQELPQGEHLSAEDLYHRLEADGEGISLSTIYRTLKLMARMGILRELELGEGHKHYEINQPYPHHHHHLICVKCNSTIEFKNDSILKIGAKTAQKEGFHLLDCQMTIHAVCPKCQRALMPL
As to the kind of experiment: EMSA. The note with it: 100 uM MnCl2; EMSA: 10 mM Bis-Tris-HCl pH 7.5, 40 mM KCl, 0.1 mg/mL BSA, 1 mM DTT, 5% glycerol (+100 uM MnCl2 for FurA/FurC; 5 ug ZnSO4 for FurB), 50-100 ng DNA in 20 uL; recombinant protein; protein details: His-tag (pET-28a); probe letters rebuilt from the primers and the genome.
For the sequence “CAAGAATTATATGCAATCGCATGAGGGTTTATACTTAATTTTGTGAATTTTTGTGCCATGAGCTTAAGGGAAGAAACTGGCTATGAACATGACATATTTACGGTAATTTTACTTCACATATCAGAAAATCTAGTATTAATACTGAAATAAAAATAAAATTTTAAATGATACATGATAGAGATTAGTAAAGTCACAGGTGTTGTAATTACGTATGCTGAGGTAAAATATAACTACTAGTATTTATCAGGAATTACAAGATATTTATGGCGATGGCTCACACCTAAAAATATGGAACTTTACCTAATTCGTCATGGCATCGCTGAAGCA (double strand) [sixA (alr0221) promoter]”, the binding result is given as “binds”.

In the case of “TTTCATTAGTCACTTAAGATAGCAATACTATTAGAGATTATTTATAAAGTAAATATTAAGTAGGGGAGGCAAAACGCGGTGTAGATATTCTTTCCGCTTTATTACCGTTGTGTTATGGCTTCAGCCTAACGCACTGCTACATAACACGTTTCATTAAGCGCTTAAATTCATTTTTTTATGACTAATAATATCGAAATCCGTGCCTAAAACAACACCAGTTGTTACAACGGAGGAAACATCCGCAACGCACTGACTCCCCTACAGAAATTTGATTTTTACTTTATAAATAACCTCTTAGCAATCACCTTGAATTGATGAAATACTTTTTTATTATTCGACTCATCTATTTTAATTTCTATTTTAATGAATGATGAACTTCTGCACGTAATTCAACATATATATTGAGATTGCATTTTATTCATTTTTTTCAATCTGCCATTGTACTGATAA (double strand) [all4896 promoter]”, the binding result was “binds”.

For the sequence “TAGTTATCTATACTTAATTCCTCGAAATATAAAATATTTATAATTATTAATTAATAAATTATAAAAAAATCTTAAATCACAAGAAATAAATTGAAAATCAAAAATTCAATTAATATTCTTAGGCTCTAAATACCTGAGTAAATACAGTGATTGTGTGGCTATAATATAAAATTTTCAGTATTTTTACTGTTTAAAGAATAAAATATAAAAACTAGAGATAGGTAACAATAGTCCATCTTTATATGGTTTTCATCTATCTTAAGTAATGTATTAAGATGACATTAAAATTACTGGGTAATATTATATTTAGAGTTAAGACTATATCAGTATATGTAAGGGTCTCTTGTTTCCAGAGACAATATATTCATGAATCGGCAGAATATCAGTAATTATTAGCTAGAAAAAAGGCAAAAAATACAGCCATGACTATGACAATTC (double strand) [all2416 promoter]”, the binding result was “no binding”.

Consider “GAGATTAGCTAGTATTGCTCCTAAATATTAATGTTTTTTTGTATCAAAATTAACAAAATTTTCAATTTATTAAAATCACATCTATTTTGATGTGATTTGTGCTGTACGTATTTGCGTTGTTGTTTGATATTACATGATAAATTCTTGGTGTAAATATAAACAGTGATAGCAATGTGACATTCTGTAATATACCAAATTTATCTTGTTATTCAAAGTTAATTCCCCAGTATCGAGTCTTAAAAGTCCCTGTGGCAGAGATTAATTTTTAGATAACGACTACGTGCAACCTTAAGATATTGATAAACAAAAAAATACTCAATATGTGTGATGTGTCAGTTAGAAAAACTGTGGACGCACCGAAAAATTATTATTTATGTAACCATCTAAGAGGCTATTT (double strand) [all1804 promoter]”, for which the binding result is on record as “binds”.

Turning to “TTTTGAACAATTTGGTAGCGTGCTTGCAGTACTTTACCGATCATGTGGTGGTTCATGAGCTGGTTACTGAGTTAGTCCTTATATAAGTATTCTCTTGATTGCGTGCTGTTTCCGGAAAGACAAATTACTCTAAGCTCGACTTTATCCAAAATTAAGAACTTGGTTTTCTTTATCTGGTAAAATACCTAGCTTTTTGGCAAATACTTTTTTCACATTTATAGGTTCCCGATGCAGTTGAAAAAGTAAGACTATTGTCTTACAAAGATTTTAGCGATCGCGATCTCATTGCAAAAAAAATGAATTAAAGTCAAGTTTAAGCCCTGCTGGCTGTCTTTATCATAGGCGCTACAGTCGTGGATCTACGGGTTCACT (double strand) [pknE (alr3732) promoter]”, the binding result was “binds”.

Consider “GTCCTAATTGACGTATGATGCGATAGCGATTATCTACAACTTGCTTCACAGCAAGCGGTAAAGGCTCACCGCAGTGAGTACAAAAACGATTACCGCCATTATTTGCGTGTTGCTTACTGCAATAAACCTGCATGGTGCTGAAGGATAGGTAAGGGTTTTTCTAAATTACTACAACAACTGTAGTCGCATTTACGAATATTCTCTAAAGATGGGGAGTGGGAAGTCGAGGAACAGAACAGGTAAGAGAGAGGGGAAATATTATGTAAGGAAGTTGTACTGCAATGTTTCTAATGACCACTGACTTTTTTTGAATTTTGTTGGCGTAGCCTTGCCGTAGGCTATTTTGAATTCCCCGAAGGGGTTAGGTGCATTATG (double strand) [alr2411-12 promoter]”, for which the binding result was “no binding”.

For the sequence “GAAACCCGTCCAACGCAGTGGCTCCCCTACGTGTATTTCAAAAATCAAGTATGAGTCCTATAGTTTTTTTAAACGTTTTTACTAGCACACTCATGTGGTTTCAAAATTACCTTGTTTGCAGTTTTTATGATTTATTTTTTCCCGAAACATAAACATAAACTATCTATTTTTGATATTATTATATAAATTAAATTTTCAATAATTTAATTTGTCAATTAAAGATTTTTGATTATAGATTACAAATCTAAACAAAGCACTTCATGTATATAAATTAATTTCGACTTAAATTATTTATAAATAAGATTTAATATTAAACCAATAAGCTACTTCATGGTGAAAGAAAAAGCATAATTCCTAAATTAACACTATATGCAGC (double strand) [all1651 promoter]”, the binding result is recorded as “binds”.

As to “CTGTGTACTTATCAGTAACGGTTTCCATTTTTATGCAGTAATTTCACAATTTTTTAGCAGCCGGCCGTTTCTATAAGCTTCTTACACCACCAAATATGAAAAAGGGAATAGACCGAGGGATGAGAGGTTAATATTTTTTACTGAAAAGTGTTGCCTGACCTACAAAATTGGGAACTATGATTTATACACTACCCCTATGAGTAGAGTCGGTCAAGCAAGTAATAGCTTAATATTTTGGTATAACTATTAACTTAATAATCGCCTCCGGGTTATTGTCTATACATTTTTACTGGAAGTACAGTAGTTTGTGGATGAGGACTATAAATTAGGCTAAACCAGGAATAGAGCCGGATGACGATGGCTGAACTACAGATTACACTGTGTGTAATGTCTATCGCTCGTTGCTTTTAGCAACACTTAAATAAATTCTTAAAAGTCTTAATCCTGTTATATCAAAAATTACCTATGTCATTGCAACAGCGTAATTTTGG (double strand) [cyaB2 (all1904) promoter]”, the binding result was “binds”.

In the case of “AAAGGCAAGCACTAAAAGTGGATAACCTGCAATTTCTTTGGTCTACGACTAGTTTGTAGTAGAACCTGCACAATTTGTTAAGGTGGAGCAAATTTACACCACTACAGTAGTGCCAAAAGAGAAAAAAATTGCATTTCCAATGGCGAATCATGGTTAAAAGTGCCGTAAAATCACTGAAATTAGTGCCTGTGAAACTCATGACCTCCTAATCTGTTGTGGTTAAACGCAATAGAGGCATTTGAGGCTAATATCAGCAGGAATTCACCCTTGATTTTTAAAGTCTCCAGTAACTTTATGCAGATGCTAAAAAGTCAAATACTGGCATGAGACAACATAATTCATCAGTTTGGAGAGAGTAAGGAAATTTTGAGCGTAATGACTGAAACTGCAACCGCGCCTTTAACTGGAAAA (double strand) [calA (alr0946) promoter]”, the binding result was “no binding”.

For “CGATCGCAATTCCAAGATTGGGCAAATAAAATCACAGAACGCTTTGCTTATAACGTGCAGTTTCAAGCTATAGGAGAAGAAGACCCAGAATTTGGTTCACCGACACAAATGGCACGTTTTTGTCAATAAGTAAGGGACTGGGGAGCAGGGGGAGAAAAGAACTGTTGACTGTTGACCAATGACTAATAACTATGAAAATTACTATTCCTGAATTATCTTTAGTTGTCTTGATTGGTGCTTCTGGTGCAGGTAAATCAACATTCGCACGTAAGCACTTTCAACCGTTTGAAGTAATATCTTCTGATTTTTGTCGTGGGTTAGTTTCCAAT (double strand) [prpA (alr3731) promoter]”, the binding result is on record as “no binding”.

Turning to “GGCTTACATCGTAGCCAGCCATCTCTAGGTTGACAGCAACAAGTTCTGAAATCGCTGGGTCATCGTCTATTACAAGAATCCTTGGCATTCTTAAAAAATTATTACTACTTATTAAGGATAAATAAGAACCTTTGGTAGATACAAAGATTTCTGTCTTGATTATAAAAAAGATTTTAAATCTAACATAAACCTTAAAACTACTAGTATGAAGAAAACAAAACTAAAATTACATTAAATTCGCAGTATGATATGTTTCCCTCCCTACAATCCGCCTGTGTTTCTGAGAAATGGTGTTGTTACAACTGTTTACACTACTTTGTGGGG (double strand) [rpaA (all0129) promoter]”, the binding result is “binds”.

As for “GAGTATCTGAATTACTTGATAGCGATTGTTCAGCAGAATAGATGTCATGGAAAGTTCAAAGTGTCCGCCCTTTCTCAATGTACATCACGATGTGGTGATAGGTTATGTTCCCGCGAATATGCAGGATATCCCATTGCTATGGCAATTTTGTTGTAGCTATACCAATTCAATTAATGATTGCAACACATCATTGGGTGAAATGAAGACGCGATTAATCGCGTATCTACAGATGGTTGATTGGTCGCATTCTTTTTTCAAATTGGTATTACTTTGAGAATTTAAATAAGGTGATACGCACCTAGAGCAAATATTTTTGCGTCAGATCTTTCCATAGTTAAGAGTCCAGAGTTAAAGGCTAGCTTGGACTGTGGACTGTGGA (double strand) [pknD (alr4368) promoter]”, the binding result is “binds”.

On to “CATTTTGTTAGTTGTCAATTGTCAGTTGTCAGTTGTTTTTTCATTACCAATGACTAATGACCAATGACTAAGGATCAGTTTTACTTATCATTTTTCTCCTTAACAATCAAGCCGACTAAGGAGACAACTTTTTACTCGACTTTAGAAAACTTAAATAAATATAGTTTAGCAGTGATTGATTAACTATATATAGTTATCCCGATTATCAAAATTAAATTGTCTTGCAAATATTGGGAATTGTGCAACAATTTTGCTTATGAGTGTAATATACTTGGCTAGGCTGAGATAAAAACTAAAGGATATTGTTCCTATTAGCTCAACGTCAGCTAAAATAAAATCGATTCAACTACTTAAACCCCTGATTTTTGACCTAAGTTGATGCCTAAACAG (double strand) [calB (all2080) promoter]”, for which the binding result is “binds”.

Source of the values: article PMC12282138.
